Data published in PubChem BioAssay AID485298 (National Center for Advancing Translational Sciences (NCATS), 2010).
About 740 (0.23%) of roughly 320,000 compounds were called active. This list was built around the results that the source calls inconclusive (neither active nor inactive); the mix of calls is not that of the screen. The call rests on the fitted dose curve; in most records, active means well fitted activation curve with a large enough effect; inconclusive means small, poorly fitted or top-dose-only effect; inactive means no such curve, though single readings can be large or run the other way. Potencies of inconclusive entries are doubtful fits and often do not repeat.

Test: qHTS Assay for Small Molecule Inhibitors of Mitochondrial Division or Activators of Mitochondrial Fusion; further: nearly all actives have a fitted effect of over 45% in size;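 on growth rescue (activation): temperature-sensitive fusion mutants such as fzo1-1 at 37 °C on non-fermentable ethanol glycerol medium; % of control where 0% means no effect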
Conditions: S. cerevisiae fusion-defective mutant growth rescue, CellTiterGlo 48 h; growth rescue (activation): at 46.1 µM (top of the series) unless noted
Outline: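 Yeast fusion mutant, YPEG (non-fermentable carbon), compound, 48 h at 37C non-permissive; CellTiterGlo added, 10 min RT, luminescence read. Rescued growth = division inhibition.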
Potency means the concentration at half of the fitted maximal effect.

Row | SMILES | Potency | growth rescue (activation)
1 | N#CC(Sc1ccccn1)c1ccc(Cl)cc1 (stereo not given) | inconclusive: 22.4 µM [activator, single point] | 
2 | CCOC(=O)/C(=N\Nc1ccc(Br)cc1)N1CC(C)OC(C)C1 (stereo not given) | inconclusive: 28.2 µM [activator, single point] | 
3 | CCOC(=O)C1=C(C)NC(=S)NC1c1ccc(-c2ccc(Cl)cc2)o1 (stereo not given) | inconclusive: 25.1 µM [activator, single point] | 
4 | O=C(NCc1ccccc1Cl)c1cccc(C(F)(F)F)c1 |  | inactive: 4.81%
5 | O=C(CN(C1CCCCC1)S(=O)(=O)c1ccccc1)NCc1ccco1 |  | inactive: 0.911%
6 | Cc1ccc(NC(=O)C2(c3ccc([N+](=O)[O-])cc3)CCCC2)cc1 | inconclusive: 28.2 µM [activator, single point] | 
7 | O=C(NNC(=S)NC1CCCCC1)c1sc2ccccc2c1Cl | inconclusive: 7.94 µM [activator, partial curve] | 
8 | Cc1c(C(=O)c2ccc(Cl)cc2[N+](=O)[O-])c2ccccn2c1CCC#N | inconclusive: 8.91 µM [activator, partial curve] | 
9 | Cc1ccc(O)c(-c2cc(-c3ccccc3[N+](=O)[O-])[nH]n2)c1 |  | inactive: 19%
10 | C=Cc1ccc(C2=CC(=O)C[C@H](c3ccc(OC)cc3)C2)cc1 | inconclusive: 22.4 µM [activator, single point] | 
11 | Cc1cccc(CSc2nc(N)c(C#N)c(-c3cccs3)c2C#N)c1 | active: 12.6 µM | 
12 | CCCCn1c(-c2ccco2)nc2ccccc2c1=O |  | inactive: 4.3%
13 | COc1ccc(-c2cc(C(=O)N3CC(C)CC(C)C3)c3ccccc3n2)cc1 (stereo not given) | inconclusive: 17.8 µM [activator, single point] | 
14 | O=C1NC(O)=NC1(c1ccccc1)c1ccccc1 | inconclusive: 25.9 µM [activator, partial curve] | 
15 | Cc1cccc(C)c1-n1nnnc1C1(Nc2ccccc2)CCCCC1 | inconclusive: 35.5 µM [activator, single point] | 
16 | CCC(CC)C(=O)Nc1c(C(=O)N2CCN(c3ccccc3)CC2)oc2ccccc12 | inconclusive: 12.6 µM [activator, partial curve] | 
17 | Cc1ccc(C)c(NC(=S)NNC(=O)c2csc(C(C)C)c2)c1 | inconclusive: 15.8 µM [activator, single point] | 
18 | Cc1nc(N2CCN(S(=O)(=O)c3ccccc3C#N)CC2)c2c(-c3cccs3)csc2n1 |  | inactive: 23.2%
19 | CCc1cccc(NC(=O)COC(=O)/C=C/c2cccs2)c1 | inconclusive: 35.5 µM [activator, single point] | 
20 | O=C(Nc1sc2c(c1C(=O)O)CCCCC2)c1ccccc1 | inconclusive: 0.562 µM [activator, full curve] | 
21 | CCOC(=O)c1cnc(-c2ccccc2)nc1-c1ccccc1 |  | inactive: 6.34%
22 | COc1ccc(Nc2nc(-c3ccccc3)nc3ccccc23)c(OC)c1 | inconclusive: 11.2 µM [activator, partial curve] | 
23 | COc1ccc(-n2ncc(S(=O)(=O)c3ccccc3)c2-c2ccc(Cl)cc2)cc1 | inconclusive: 12.6 µM [activator, single point] | 
24 | Cn1c(=NC(=O)COc2ccccc2)sc2cccc(F)c21 |  | inactive: 1.45%
25 | O=C(NCc1ccc2c(c1)OCO2)c1ccc(CSCc2ccccc2Cl)o1 | inconclusive: 14.1 µM [activator, partial curve] | 

Row | SMILES | Potency | growth rescue (activation)
26 | CC(NC(=O)CCN1C(=O)c2ccccc2C1=O)c1ccccc1 (stereo not given) |  | inactive: 2.26%
27 | COc1ccc(-c2cc3c(=O)n(CC(=O)NCc4cccnc4)nc(C)n3n2)cc1 | inconclusive: 0.562 µM [activator, full curve, poor fit] | 
28 | COc1ccc(O)c(N)c1 | inconclusive: 14.1 µM [activator, single point] | 
29 | COc1ccc(-c2nc3cnccn3c2NCc2ccccc2)cc1SC1CCCCC1 | inconclusive: 11.2 µM [activator, partial curve] | 
30 | NC1=NC2(CCCCC2)N=C(Nc2ccc(F)cc2F)N1 |  | inactive: -2.13%
31 | Cc1c(C(=O)C(=O)N2c3ccccc3CC2C)c2ccccc2n1C (stereo not given) |  | inactive: -8.73%
32 | Clc1cccc(CSc2ncn(-c3ccccc3)n2)c1 | inconclusive: 14.1 µM [activator, single point] | 
33 | Cc1cccc(C(=O)OC(C)C(=O)NC(=O)NC2CCCCC2)c1O (stereo not given) | inconclusive: 12.6 µM [activator, single point] | 
34 | CCOC(=O)C1C(c2ccccc2)N(C)OC1(O)C(F)(F)F (stereo not given) | inconclusive: 17.8 µM [activator, single point] | 
35 | CCc1nc2scc(-c3ccc(C)cc3)c2c(=O)n1N | inconclusive: 10 µM [activator, partial curve] | 
36 | CCN(CC)C(=O)c1sc(NC(=O)c2ccncc2)c(C(=O)OC)c1C |  | inactive: -1.39%
37 | Cc1ccc(C(=O)c2ccccc2C(=O)OCC(=O)Nc2ccc(SC(F)F)cc2)cc1 | inconclusive: 10 µM [activator, partial curve] | 
38 | N=c1c2c(-c3ccccc3)c(-c3ccccc3)oc2ncn1CCN1CCOCC1 | inconclusive: 25.1 µM [activator, single point] | 
39 | CSc1ncnc2c1cnn2-c1ccc(C)cc1C |  | inactive: -3.71%
40 | COc1ccc(O)c(CNn2c(-c3ccc(Br)cc3)nc3ccccc3c2=O)c1 | inconclusive: 35.5 µM [activator, partial curve, poor fit] | 
41 | O=c1nc2cccc3c2=c(/c1=C(\O)c1ccccc1)c1ccccc1c3=O | inconclusive: 35.5 µM [activator, partial curve] | 
42 | CC(=O)Nc1ccc(SCc2csc(C)n2)cc1 | inconclusive: 5.62 µM [activator, single point] | 
43 | OC(COCc1cccs1)CN1CCN(c2cccc(Cl)c2)CC1 (stereo not given) | inconclusive: 15.8 µM [activator, partial curve] | 
44 | COc1ccc(Cl)cc1NC(=O)C(C)N1CCN(c2ccccn2)CC1 (stereo not given) | inconclusive: 35.5 µM [activator, single point] | 
45 | Cc1ccc(C(=O)CCC(=O)N2CCN(c3ccccc3O)CC2)cc1 | inconclusive: 35.5 µM [activator, single point] | 
46 | COc1cccc(C(=O)NCCN2CCN(c3ccc(Cl)cc3)CC2)c1 | inconclusive: 8.2 µM [activator, partial curve] | 
47 | COc1cccc(NC(=O)c2cccc(S(=O)(=O)N3CCN(Cc4ccccc4)CC3)c2)c1 | inconclusive: 25.1 µM [activator, single point] | 
48 | Cc1cc(O)cc(O)c1C(=O)Cc1ccccc1 | inconclusive: 11.2 µM [activator, partial curve] | 
49 | COc1ccc2nc(C)cc(SCC(=O)NNC(=O)COc3cccc4ccccc34)c2c1 |  | inactive: 0.046%
50 | CC(C)c1nnc(NC(=O)C2c3ccccc3Oc3ccccc32)s1 | inconclusive: 22.4 µM [activator, single point] | 

Ordered by heavy-atom count (rising): some entries from above
Row | SMILES | Potency | growth rescue (activation)
28 | COc1ccc(O)c(N)c1 | inconclusive: 14.1 µM [activator, single point] | 
26 | CC(NC(=O)CCN1C(=O)c2ccccc2C1=O)c1ccccc1 (stereo not given) |  | inactive: 2.26%
50 | CC(C)c1nnc(NC(=O)C2c3ccccc3Oc3ccccc32)s1 | inconclusive: 22.4 µM [activator, single point] | 
45 | Cc1ccc(C(=O)CCC(=O)N2CCN(c3ccccc3O)CC2)cc1 | inconclusive: 35.5 µM [activator, single point] | 
40 | COc1ccc(O)c(CNn2c(-c3ccc(Br)cc3)nc3ccccc3c2=O)c1 | inconclusive: 35.5 µM [activator, partial curve, poor fit] | 
27 | COc1ccc(-c2cc3c(=O)n(CC(=O)NCc4cccnc4)nc(C)n3n2)cc1 | inconclusive: 0.562 µM [activator, full curve, poor fit] | 

Following part.

Row | SMILES | Potency | growth rescue (activation)
51 | Cc1cc(C)cc(Nc2nc3ccc(C)cc3n3cnnc23)c1 | inconclusive: 22.4 µM [activator, single point] | 
52 | O=C(COC(=O)c1cccc2c1C(=O)c1ccccc1C2=O)NC1CCCCC1 | inconclusive: 12.6 µM [activator, single point] | 
53 | CCOC(=O)C1=C(C)C(c2cccc(Oc3ccccc3)c2)NC(=S)N1 (stereo not given) | inconclusive: 35.5 µM [activator, single point] | 
54 | CC1CCCCC1NC(=O)COCc1cc(-c2cccs2)on1 (stereo not given) | inconclusive: 35.5 µM [activator, partial curve, poor fit] | 
55 | O=C(N/N=C/c1cc2c(cc1Br)OCO2)c1ccccn1 |  | inactive: -2.08%
56 | Cc1cc(NC(=O)CC2CCCC2)ccc1Br |  | inactive: 8.26%
57 | O=S(=O)(c1ccccc1Cl)N1CCCC1c1nc(-c2cccc(Cl)c2)no1 (stereo not given) | inconclusive: 35.5 µM [activator, single point] | 
58 | Cc1nc2ccc(NC(=O)c3ccc4ccccc4n3)cc2s1 | active: 3.98 µM | 
59 | CCOC(=O)CN(C(=O)CN1CCC(n2nnc3cc(C)ccc32)CC1)c1ccccc1 |  | inactive: -2.26%
60 | COCCNC(=S)N/N=C/c1c2ccccc2cc2ccccc12 |  | inactive: -14.1%
61 | COc1cc(CNc2ccc(C(=O)O)cc2)cc(Br)c1OCC(=O)NC(C)(C)C |  | inactive: 7.82%
62 | CCS(=O)(=O)Nc1ccc(-c2cc(-c3ccccc3)c3cc(C)ccc3n2)cc1 |  | inactive: -37.1%
63 | Cc1ccc(OCC(=O)N2CCc3ccccc3C2)c(C)c1 |  | inactive: -3.42%
64 | CC(=O)c1c(C)n(C)c2ccc(OC(=O)c3ccco3)cc12 |  | inactive: -9.65%
65 | COc1ccc2c(c1)CC/C2=N\OC(=O)c1ccccc1OC | active: 35.5 µM | 
66 | COc1ccccc1C(=O)Nc1ccc2c(c1)nc1n2CCN(C2CCCCC2)C1 |  | inactive: -1.07%
67 | Cc1ccc(N2C(=O)c3ccccc3C2Nc2ccc(S(=O)(=O)N3CCCCC3)cc2)nc1 (stereo not given) |  | inactive: 1.22%
68 | O=C(NCc1ccco1)c1ccc2c(c1)C(=O)N(Cc1ccccc1)C2=O |  | inactive: -1.13%
69 | CN(C)N1C(N)=C(C#N)C(c2cccs2)C2=C1CCCC2=O (stereo not given) | inconclusive: 35.5 µM [activator, single point] | 
70 | Cc1cccc(NC(=O)CS(=O)(=O)c2cn(CC(=O)N3CCOCC3)c3ccccc23)c1 |  | inactive: 0.258%
71 | N#C/C(=C\c1ccccc1[N+](=O)[O-])c1nc(C2CC2)cs1 | active: 20 µM | 
72 | Cc1cccc(C)c1N(CC(=O)Nc1cc(Cl)ccc1Oc1ccccc1)S(C)(=O)=O | inconclusive: 10 µM [activator, partial curve] | 
73 | O=C(NN=C1CCN(Cc2ccccc2)CC1)c1ccccc1O |  | inactive: 1.44%
74 | O=C(c1ccccc1Br)N(Cc1ccccc1)c1ccccc1 | inconclusive: 7.08 µM [activator, full curve] | 
75 | Cc1ccccc1OCC(=O)Nc1ccc2c(c1)C(=O)c1ccccc1C2=O | inconclusive: 35.5 µM [activator, single point] | 
